Reference: PubChem BioAssay AID2685 (National Center for Advancing Translational Sciences (NCATS), 2010)
The other results are listed elsewhere or left out. These are further read-outs of the screen, such as a control signal, another cell line or another target. No call is given for them. Compounds called inactive in the main read-out are mostly missing here. Potencies come from curve fits of mixed quality, noted in brackets.

Assay: qHTS Assay for Lipid Storage Modulators in Drosophila S3 Cells;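 as to cell number change: cells counted by Cell Tracker Red CMTPX staining in the red channel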
Conditions: BODIPY lipid droplet fluorescence, 18-24 h; for cell number change: measured here: cell count max response, cells fed with added oleic acid
Outline: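 Drosophila S3 cells loaded with oleic acid (400 uM, as added) and compounds at several concentrations; lipid droplets imaged by 488-nm laser-scanning cytometry, 500–530 nm intensity and object ratio to cell channel. Percent activity normalized to 20 uM Triacsin C.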

[1] = measured here: lipid fluorescence (Fed channel) AC50, cells fed with added oleic acid
[2] = measured here: cell number channel AC50, cells fed with added oleic acid

## COc1cc2c(cc1NC(=O)CC1SC(N3CCCC3)=NC1=O)oc1ccccc12 (centres undefined)
  cell number change: -14.7%
[1]
  AC50: 0.00461 µM [rising, full curve, poor fit]

## COc1cccc(/C=C/C(=O)OCC(=O)NC(=O)NC2CCCC2)c1
  cell number change: -6.27%
[2]
  AC50: 6.51 µM [falling, single point]

## CC(=O)NC12CC3CC(C1)CC(C(=O)NCc1ccc(C)cc1)(C3)C2
  cell number change: 12.7%
[1]
  AC50: 29.1 µM [rising, single point]

## Cc1cc(C)n(C(=O)CNC(=O)c2cccc(Cl)c2)n1
  cell number change: 1.61%
[1]
  AC50: 0.58 µM [rising, single point]

## CCCSc1ccc(C(=O)Nc2ccc(F)cc2F)cn1
  cell number change: -23.5%
[1]
  AC50: 23.1 µM [falling, single point]

## Brc1ccc2c(c1)C(C1=NCCN1)c1ccccc1CS2 (centres undefined)
  cell number change: -0.244%
[1]
  AC50: 32.6 µM [rising, single point]

## COc1ccc(OC)c(S(=O)(=O)N2CCC(C(=O)NC3CCCCCC3)CC2)c1
  cell number change: 40.8%
[2]
  AC50: 1.64 µM [rising, full curve]
[1]
  AC50: 5.62 µM [falling, single point]

## CC(C)CN(CCCNC(=O)CN1C(=O)COc2ccc(S(=O)(=O)N3CCC(C)CC3)cc21)CC(C)C
  cell number change: -0.917%
[1]
  AC50: 0.92 µM [rising, full curve]

## O=C(Nc1nccs1)c1ccc2nccnc2c1
  cell number change: -16.6%
[1]
  AC50: 6.51 µM [rising, partial curve, poor fit]

## Cc1ccc(NS(=O)(=O)c2cccc(C(=O)N3CCCCCC3)c2)cc1
  cell number change: -24.5%

## Cc1ccc(NC(=O)CN2CCN(Cc3ccccc3)CC2)c(Br)c1
  cell number change: 13.7%
[1]
  AC50: 6.51 µM [falling, single point]

## CCOc1ccccc1-n1c(SCC(=O)NC(C)(C)C)nnc1-c1ccoc1C
  cell number change: -26.6%

## CC(C)C(NC(=O)c1ccccc1)C(=O)OCc1cc([N+](=O)[O-])cc2c1OCOC2 (centres undefined)
  cell number change: -40.7%
[2]
  AC50: 25.9 µM [falling, single point]
[1]
  AC50: 20.6 µM [falling, single point]

## CC(Oc1cccc(Cl)c1)C(=O)NCCCCc1ccccc1 (centres undefined)
  cell number change: 4.66%
[1]
  AC50: 0.411 µM [rising, full curve, poor fit]

## Cc1cc(C)c(C#N)c(Sc2ccc(N)cc2)n1
  cell number change: 29.7%
[1]
  AC50: 7.31 µM [rising, partial curve, poor fit]

## Cc1ccc(-n2[nH]c(C)c(C=Nc3ccc4[nH]c(=O)[nH]c4c3)c2=O)cc1
  cell number change: -89.2%
[2]
  AC50: 29.1 µM [falling, single point]
[1]
  AC50: 20.6 µM [falling, partial curve]

## O=C(CCN1C(=O)[C@H]2CC=CC[C@H]2C1=O)NCc1nc(-c2ccccc2)no1
  cell number change: -13.3%
[1]
  AC50: 25.9 µM [rising, single point]

## CC(C)n1cc(C(N)=S)c(=O)n(Cc2ccccc2)c1=O
  cell number change: -29.2%

## Cc1cccc(C(=O)N2CCN(c3ccc([N+](=O)[O-])c(NCc4ccco4)c3)CC2)c1
  cell number change: 0.256%
[1]
  AC50: 0.58 µM [rising, single point]

## COC(=O)c1c(NC(=O)C2CC2)sc(C(=O)Nc2ccccc2)c1C
  cell number change: 57.9%
[2]
  AC50: 29.1 µM [rising, single point]

## CCOC(=O)[C@@H]1[C@H]2COc3ccccc3[C@@H]2N2C(=O)N(c3cccc(C)c3)C(=O)[C@]12C
  cell number change: 32.9%
[2]
  AC50: 23.1 µM [rising, single point]
[1]
  AC50: 29.1 µM [rising, single point]

## COC(=O)c1sc(SC)nc1N
[1]
  AC50: 3.26 µM [rising, single point]

## Cn1c(NNC(=O)c2cccc3ccccc23)cc(=O)n(C)c1=O
  cell number change: -2.89%
[1]
  AC50: 0.00517 µM [falling, full curve, poor fit]

## Oc1ccccc1C=Nc1ccccc1-c1nc2ccccc2[nH]1
  cell number change: -18.6%
[1]
  AC50: 16.4 µM [falling, single point]

## CCC(Sc1nc2cc3c(cc2c(=O)n1Cc1ccco1)OCO3)C(=O)NCCOC (centres undefined)
[1]
  AC50: 2.31 µM [rising, partial curve, poor fit]

## O=C(CCN1C(=O)c2ccccc2C1=O)Nn1cnnc1
  cell number change: 6.86%

## COc1ccc(C2C3C(C)=NN=C3CC(C)(O)C2C(C)=O)cc1 (centres undefined)
[1]
  AC50: 0.184 µM [rising, full curve, poor fit]

## Cn1c(=O)c(=O)n(C)c2cc(S(=O)(=O)N3CCN(c4ccccc4F)CC3)ccc21
  cell number change: 9.96%
[1]
  AC50: 0.013 µM [rising, full curve, poor fit]

## O=C(N[C@@H](Cc1c[nH]c2ccccc12)C(=O)O)C1CCN(S(=O)(=O)c2cccs2)CC1
  cell number change: 20.7%
[2]
  AC50: 0.82 µM [rising, full curve, poor fit]

## CC1CC(=O)Nc2ccccc2N1C(=O)Cn1cnc2ccccc2c1=O (centres undefined)
  cell number change: -7.38%
[1]
  AC50: 32.6 µM [rising, single point]

## CC1CN(c2cc(=O)n(-c3ccccc3)c(=O)[nH]2)CC(C)O1 (centres undefined)
  cell number change: -32%
[2]
  AC50: 14.6 µM [falling, single point]

## COc1c(Br)cc(Br)cc1C(=O)Nc1ccccc1N1CCCC1
  cell number change: 90.8%
[2]
  AC50: 25.9 µM [rising, partial curve]
[1]
  AC50: 29.1 µM [rising, single point]

## CCn1c(C)cc(/C=C2\NC(=O)N(CC(=O)Nc3ccc(F)cc3)C2=O)c1C
  cell number change: -0.955%
[1]
  AC50: 16.4 µM [falling, partial curve, poor fit]

## C=CCSc1nnc2nc3c(nn12)c1cc(C)ccc1n3CC=C
  cell number change: -16.4%
[1]
  AC50: 0.146 µM [rising, full curve, poor fit]

## CCCCNC(=O)C1Cc2cc(S(=O)(=O)N3CCCCC3)ccc2N1C(C)=O (centres undefined)
  cell number change: 1.47%

## COc1ccccc1C(=O)Nc1ccc(C(=O)c2ccccc2)cc1
  cell number change: -46.5%
[2]
  AC50: 16.4 µM [falling, single point]
[1]
  AC50: 29.1 µM [falling, single point]

## CCN(c1ccccc1)S(=O)(=O)c1ccc2c(c1)N(C(C)=O)CCO2
  cell number change: 9.48%

## COC(=O)CCn1c(C)cc(C(=O)COc2ccccc2C(N)=O)c1C
  cell number change: -16.6%
[1]
  AC50: 0.461 µM [rising, full curve, poor fit]

## CC(=O)Nc1nonc1NC(C)=O
  cell number change: 4.81%
[1]
  AC50: 20.6 µM [falling, single point]

## CC(CN1C(C)CCCC1C)OC(=O)c1ccc(Cl)cc1 (centres undefined)
[1]
  AC50: 2.06 µM [falling, single point]

## CCCCOc1cccc(C(=O)N(Cc2ccco2)C2CCS(=O)(=O)C2)c1 (centres undefined)
  cell number change: 58.3%
[2]
  AC50: 29.1 µM [rising, single point]
[1]
  AC50: 0.651 µM [falling, full curve, poor fit]

## c1ccc(-c2nn3c(Cn4nnc5ccccc54)nnc3s2)nc1
[2]
  AC50: 2.31 µM [rising, partial curve]
[1]
  AC50: 0.651 µM [rising, single point]

## c1cc2c(cc1Nc1nc(-c3ccc4c(c3)OCO4)cs1)OCCO2
[2]
  AC50: 0.731 µM [rising, partial curve, poor fit]

## COc1ccc(C(=O)Nc2ccnc(-c3cccnc3)n2)cc1
  cell number change: 37.1%

## O=C(N/N=C/c1cccc(Br)c1)C1CC(=O)N(c2ccccc2)C1 (centres undefined)
  cell number change: 6.58%
[1]
  AC50: 2.24 µM [falling, partial curve]

## CCCCOc1ccc(C(=O)Nc2ccc(S(=O)(=O)Nc3onc(C)c3C)cc2)cc1
  cell number change: 0.587%
[1]
  AC50: 0.0731 µM [rising, partial curve, poor fit]

## O/N=C1\CCCc2ccc(Cl)cc21
  cell number change: -58.3%
[2]
  AC50: 20.6 µM [falling, partial curve, poor fit]

## Cc1nnc(SCCn2c(N3CCCC(C)C3)nc3c2c(=O)[nH]c(=O)n3C)s1 (centres undefined)
  cell number change: -9.78%
[1]
  AC50: 6.51 µM [falling, single point]

## COc1cccc(N2CCN(C(=S)NCCc3ccccc3)CC2)c1
  cell number change: 124%
[2]
  AC50: 5.17 µM [rising, partial curve]
[1]
  AC50: 7.31 µM [rising, partial curve]

## NS(=O)(=O)c1ccc(NS(=O)(=O)c2ccc(NC(=S)Nc3ccccc3)cc2)cc1
  cell number change: -6.64%
[1]
  AC50: 0.0651 µM [falling, full curve, poor fit]

## O=C(OCC(=O)N1CCOCC1)c1cccc(S(=O)(=O)Nc2ccc(F)cc2)c1
  cell number change: -7.71%
[1]
  AC50: 9.2 µM [falling, partial curve, poor fit]

## CCNC(=O)COC(=O)c1ccc(-c2nc3ccccc3s2)s1
[1]
  AC50: 5.17 µM [falling, partial curve]

## O=C1C2C(C(=O)N1c1ccncc1)C1C=CC2C12CC2 (centres undefined)
  cell number change: -25.6%

## COc1ccc(OC)c(CNS(=O)(=O)c2c(C)nc3scc(C)n3c2=O)c1
  cell number change: -11.5%
[1]
  AC50: 29.1 µM [rising, single point]

## CCN(CC(=O)Nc1cc(Cl)ccc1C)C(=O)c1ccc(N2CCCC2=O)cc1
  cell number change: -1.04%

## COc1ccc(NC(=O)/C=C/c2ccc(OC(F)F)cc2)cn1
  cell number change: 18.4%

## CC(=O)c1cccc(NC(=O)C(C)OC(=O)C2CCC2)c1 (centres undefined)
  cell number change: -31.4%
[2]
  AC50: 0.231 µM [falling, full curve]

## COc1ccc(N2CCN(C(=O)C3CCCN(S(=O)(=O)c4ccc(F)cc4)C3)CC2)cc1 (centres undefined)
  cell number change: -29.2%
[1]
  AC50: 29.1 µM [falling, single point]

## CCN(CC(=O)Nc1ccc2c(c1)OCCO2)C(=O)/C=C/c1ccc(F)cc1
  cell number change: 53.8%
[2]
  AC50: 11.6 µM [rising, partial curve]
[1]
  AC50: 16.4 µM [rising, single point]

## CCOc1ccc(N2CC(C(=O)Nc3ccc(S(=O)(=O)Nc4nccs4)cc3)CC2=O)cc1 (centres undefined)
  cell number change: -23.1%

## O=S(=O)(c1cccc(S(=O)(=O)N2CCOCC2)c1)N1CCCCCC1
  cell number change: 0.259%
[1]
  AC50: 23.1 µM [falling, single point]
